Measured values taken from patent publication US6368552B1, “Water treating agent and water treating method” (Kurita Water Industries Ltd., priority 1999, dated 2002).

Legend:
[1] = Laboratory electric boiler test: corrosion of SPCC steel test pieces in steam condensate, 96 hours
[2] = Corrosion prevention test with steel test pieces immersed in deionized water in a beaker; settings: 100 mg chemical in 500 ml deionized water, normal temp., starting pH 5.5, 5 days
[3] = steam condensate at 50° C., 96 hours, chemicals at stated conc. (mg/l) in softened feed water, boiler 183° C., 1 MPa

Row | Structure (SMILES) | Corrosion rate [1, 3] | Corrosion rate [2] | Corrosion rate [1]
1 | CC=Cc1ccc(O)c(OC)c1 [Example 5, Isoeugenol] | 173 mg/dm^2/day | 4.7 mg/dm^2/day | –
2 | CCCCCCC1CCC(=O)O1 (stereo not drawn) [Example 2, γ-decalactone] | – | 4.8 mg/dm^2/day | –
3 | CCCCCCCC1CCC(=O)O1 (stereo not drawn) [Example 3, γ-undecalactone] | 162 mg/dm^2/day | 4.6 mg/dm^2/day | –
4 | CCCCCC1CCC(=O)O1 (stereo not drawn) [Example 1, γ-nonalactone] | 175 mg/dm^2/day | 6.1 mg/dm^2/day | –
5 | CCN(CC)CCO [compound 5, Diethylethanolamine, reference compound] | – | – | 195 mg/dm^2/day
6 | C=CCc1ccc(O)c(OC)c1 [Example 4, Eugenol] | – | 5.6 mg/dm^2/day | –
